These are yes or no findings as the source states them, for the method shown. In cells and extracts the contact can be indirect. Some binding calls cover weakened binding; strength is not graded here.

Sequences of proteins named here, by UniProt entry; tags and fusion partners are left off. A change or cut given only in a name is not applied to a line headed by its entry.
UniProt P25445: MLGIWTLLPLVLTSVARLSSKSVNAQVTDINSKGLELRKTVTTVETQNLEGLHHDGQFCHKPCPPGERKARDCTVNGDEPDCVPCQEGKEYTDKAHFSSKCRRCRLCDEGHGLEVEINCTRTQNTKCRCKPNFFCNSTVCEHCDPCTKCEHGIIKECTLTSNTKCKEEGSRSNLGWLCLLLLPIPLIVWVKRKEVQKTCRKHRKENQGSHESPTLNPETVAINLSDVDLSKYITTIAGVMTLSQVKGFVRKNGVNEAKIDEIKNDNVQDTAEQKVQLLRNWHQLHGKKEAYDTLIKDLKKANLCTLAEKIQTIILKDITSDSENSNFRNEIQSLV
UniProt Q03135: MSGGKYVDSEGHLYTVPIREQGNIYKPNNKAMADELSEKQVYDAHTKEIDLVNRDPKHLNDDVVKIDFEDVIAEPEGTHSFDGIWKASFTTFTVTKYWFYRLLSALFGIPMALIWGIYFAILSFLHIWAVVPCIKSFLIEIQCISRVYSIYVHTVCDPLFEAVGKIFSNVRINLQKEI

Holding throughout (experiment): co-IP; endogenous proteins of A549 cells treated with 50 uM RSV for the indicated times (with or without 3-MA pre-treatment or P62 siRNA); RIPA lysate, 1 mg total lysate with 2 ug of P62, Fas or Cav-1 antibody and Dynabeads protein G at 4 C; detected by western blot; purified IgG as control
On the technique in general: A western blot detects proteins with antibodies after separation by electrophoresis.

Assay [1] addresses Fas (human (endogenous in A549)) (UniProt P25445).
The target in assay [2] is P62 protein, also called sequestosome 1 (SQSTM1) (human (endogenous in A549)) (UniProt Q13501).
Assay [3] deals with Caveolin-1 (Cav-1) (human (endogenous in A549)) (UniProt Q03135).

As to “Caveolin-1 (Cav-1) (from UniProt Q03135 1-178)”, the binding entry in assay [1] and in assay [2] was “binds” each time.
“Fas (from UniProt P25445 26-335) (receptor)”: the binding result in assay [2] and in assay [3] was “binds” each time.

(Values after paper PMC4359255.)
